Results are given in words; binding and its absence hold for the method and conditions named.
Columns and labels:
[1] = molecular target: Aim18p-Nd70 (S. cerevisiae) (UniProt P38884); assay: SEC
[2] = molecular target: Aim46p-Nd62 (S. cerevisiae) (UniProt P38885); assay: SEC

B1: Aim18p-Nd70 (domain or fragment, UniProt P38884 71-321)
chain: RDRPVQNDDKTDAFPSHTESIQVDSSVSDFPLTITALNFPVSTTFKLLGYGQRHVTFLRFKVYALGLYLAENDENLVSDTLNETYLHKYFLDVDDSKTPKENLARLLKRDDSKSVMMIDDLLDSGMRMLAKITPVRNTDFKHLKEGLVKTISKHPDVANNKDTLAKGLSELNDAFSRKGSVRKNDDLIIELLANGALQFSYHDSKNNEFEVMGVVNNQLVGKFLFSQYLCGEKSPSPQAKKTAIDKLITLL
Q: How did the binding [1] turn out when B1 was run?
A: Its binding is “no binding”.

B2: Aim46p-Nd62 (domain or fragment, UniProt P38885 63-310)
chain: DDSQIKKADATSVAVDASISAFPKKMGPPQWPFSTQYELIGKGVRCVSSITFKAYGLGIYVAAEDKHLVSEVLDSKFLSQAFIDTAAPPSPENSHQDNLRAALNDPAKAPILINNLLDSGIRLMSKNTPIKAGSFKLLMDGTKKSVLKNPDSQSQDKDRLEAGFQELHDCFRSVKGLVARDDDFFIELNKDCSMNLSYYARKKDEFVILGTVKEPLIGKLLFAHYLAAVDPPSPEARKEVIDALVSLS
Q: B2 was tested. Which binding [2] did it give?
A: The binding was “no binding”.
